The other results are listed elsewhere or left out.

Amino acid sequences for entries named in this document (tags omitted). A change or cut given only in a name is not applied to a line headed by its entry.
UniProt Q9BSH5: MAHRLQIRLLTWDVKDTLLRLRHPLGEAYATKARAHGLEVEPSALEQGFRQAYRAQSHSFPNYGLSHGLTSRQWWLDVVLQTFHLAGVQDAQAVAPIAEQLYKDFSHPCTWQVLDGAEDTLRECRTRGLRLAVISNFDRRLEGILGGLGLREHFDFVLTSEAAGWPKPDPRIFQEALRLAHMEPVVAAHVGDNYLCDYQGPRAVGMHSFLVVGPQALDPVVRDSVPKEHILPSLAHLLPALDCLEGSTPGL
UniProt Q9BT25: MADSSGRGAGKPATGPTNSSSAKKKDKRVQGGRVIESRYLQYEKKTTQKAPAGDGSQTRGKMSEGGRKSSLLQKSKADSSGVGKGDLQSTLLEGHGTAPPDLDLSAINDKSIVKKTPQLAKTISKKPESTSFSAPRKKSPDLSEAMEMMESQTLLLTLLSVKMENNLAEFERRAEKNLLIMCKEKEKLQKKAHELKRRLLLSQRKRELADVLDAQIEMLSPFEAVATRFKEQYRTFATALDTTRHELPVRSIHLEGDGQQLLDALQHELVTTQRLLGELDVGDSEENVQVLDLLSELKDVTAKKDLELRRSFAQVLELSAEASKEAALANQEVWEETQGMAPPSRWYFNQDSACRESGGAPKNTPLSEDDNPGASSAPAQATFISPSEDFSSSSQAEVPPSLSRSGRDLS
UniProt O00165, whole entry, looked up: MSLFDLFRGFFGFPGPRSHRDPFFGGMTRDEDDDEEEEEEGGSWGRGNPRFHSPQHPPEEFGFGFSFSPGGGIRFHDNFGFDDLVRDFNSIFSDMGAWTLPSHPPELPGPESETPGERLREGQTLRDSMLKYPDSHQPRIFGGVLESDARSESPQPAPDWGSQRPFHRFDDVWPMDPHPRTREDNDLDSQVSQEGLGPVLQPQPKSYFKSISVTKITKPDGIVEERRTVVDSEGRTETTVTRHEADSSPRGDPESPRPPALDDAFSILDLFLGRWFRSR
UniProt Q8WUI4: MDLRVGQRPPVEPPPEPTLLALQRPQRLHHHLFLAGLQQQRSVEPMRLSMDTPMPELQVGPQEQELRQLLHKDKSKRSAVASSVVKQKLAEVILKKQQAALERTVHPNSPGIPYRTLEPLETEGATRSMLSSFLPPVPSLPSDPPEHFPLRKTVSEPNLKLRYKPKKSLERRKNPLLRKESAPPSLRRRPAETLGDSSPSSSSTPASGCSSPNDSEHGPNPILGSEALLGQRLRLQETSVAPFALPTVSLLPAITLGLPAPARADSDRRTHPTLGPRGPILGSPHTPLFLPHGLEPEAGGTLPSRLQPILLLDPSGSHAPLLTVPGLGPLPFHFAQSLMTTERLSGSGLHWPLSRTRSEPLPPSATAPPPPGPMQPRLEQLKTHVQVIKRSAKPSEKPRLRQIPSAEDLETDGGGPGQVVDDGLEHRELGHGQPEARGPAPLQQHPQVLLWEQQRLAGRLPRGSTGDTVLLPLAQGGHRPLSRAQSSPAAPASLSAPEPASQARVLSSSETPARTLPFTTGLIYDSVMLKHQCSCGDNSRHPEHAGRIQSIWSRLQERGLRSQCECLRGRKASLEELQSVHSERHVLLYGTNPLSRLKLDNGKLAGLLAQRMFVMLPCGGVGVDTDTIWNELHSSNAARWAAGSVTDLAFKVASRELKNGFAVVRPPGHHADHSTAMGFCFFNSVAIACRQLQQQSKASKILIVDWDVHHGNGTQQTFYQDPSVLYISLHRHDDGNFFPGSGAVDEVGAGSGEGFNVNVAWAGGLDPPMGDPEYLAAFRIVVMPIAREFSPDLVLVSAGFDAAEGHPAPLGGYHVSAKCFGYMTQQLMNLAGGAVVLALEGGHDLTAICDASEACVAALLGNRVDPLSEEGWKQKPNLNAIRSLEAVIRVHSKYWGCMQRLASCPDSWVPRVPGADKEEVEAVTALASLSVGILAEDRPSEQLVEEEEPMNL
UniProt P28799: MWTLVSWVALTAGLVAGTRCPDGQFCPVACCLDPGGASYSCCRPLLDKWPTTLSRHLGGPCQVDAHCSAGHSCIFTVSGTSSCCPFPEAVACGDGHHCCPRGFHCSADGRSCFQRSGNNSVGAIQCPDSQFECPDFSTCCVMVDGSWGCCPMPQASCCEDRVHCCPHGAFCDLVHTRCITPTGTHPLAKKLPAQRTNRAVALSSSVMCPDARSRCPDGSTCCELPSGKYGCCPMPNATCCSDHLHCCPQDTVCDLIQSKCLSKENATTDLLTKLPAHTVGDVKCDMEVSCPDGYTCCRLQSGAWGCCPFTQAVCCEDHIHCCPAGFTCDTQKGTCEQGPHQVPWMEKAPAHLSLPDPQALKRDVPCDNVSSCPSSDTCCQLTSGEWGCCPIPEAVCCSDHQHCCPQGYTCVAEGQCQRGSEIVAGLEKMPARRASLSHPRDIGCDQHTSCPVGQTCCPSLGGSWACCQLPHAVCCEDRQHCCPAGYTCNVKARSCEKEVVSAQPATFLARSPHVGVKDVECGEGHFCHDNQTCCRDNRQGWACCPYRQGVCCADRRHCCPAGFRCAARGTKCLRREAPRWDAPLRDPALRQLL

The results in this text go back to the supplement of paper PMC10849652.

What all share (test): log2 fold change, soluble protein after heating vs DMSO (PISA); higher = thermal stabilisation; K562 lysate, 10 uM; active = over 0.2 and 3.5 SD of the protein, either way, in both replicates (recomputed)
Compound in experiment [1]: C#Cc1cccc(Nc2ncnc3cc(OCCOC)c(OCCOC)cc23)c1 [erlotinib]
The method in brief: (§1)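 Quantification was by TMTpro 16plex LC-MS/MS with equalised channel sums, applied to the supernatant after 21,000xg for 90 min. Samples were crude K562 extract at 1 mg/mL protein in PBS pH 7.4 with 1 mM MgCl2, treated with 10 μM compound for 30 min, heated for 3 min across 48°C-58°C, pooled and brought to 0.5% NP-40 at 4°C. Values are log-two fold changes in thermal stability relative to solvent controls, from duplicates.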

Compound in experiment [2]: C/C(=N\NC(=O)C1=CC(=CC=C1)S(=O)(=O)N2CCOCC2)/C3=C(C=CC(=C3)Cl)O
The method in brief:
as §1

Compound in experiment [3]: C1=CC(=CC=C1C2=NC3=C(N2)C=C(C=C3)C(=O)N)OC4=CC=C(C=C4)Cl
The method in brief: as §1

Compound in experiment [4]: C1=CC2=C(C=CC(=C2)/C=C\3/C(=O)NC(=NCC4=CC=CS4)S3)N=C1
The method in brief:
as §1

Compound in experiment [5]: C1=CC2=NC=CN=C2C=C1/C=C/3\C(=O)NC(=O)S3
The gist of the method: as §1

Compound in experiment [6]: C1=CC=C(C=C1)C2=NC(=C(N2)C3=CC=NC=C3)C4=CC(=C(C=C4)Cl)O
The gist of the method: as §1

Compound in experiment [7]: C1=CC=C2C(=C1)C3=NNC4=CC=CC(=C43)C2=O
The method in brief: as §1

Compound in experiment [8]: C1CCN(C1)C(=O)NC2=CC=CC(=C2)NC3=NC=C(C(=N3)NCCC4=CN=CN4)Br
The gist of the method: as §1

Compound in experiment [9]: C1CN(CCC1(CC2=CC=C(C=C2)Cl)N)C3=NC=NC4=C3C=CN4
The method in brief: as §1

Compound in experiment [10]: C1COCCN1CCN2C3=CC=CC=C3N=C2NC(=O)C4=CC(=CC=C4)[N+](=O)[O-] [IRAK-1-4 Inhibitor I]
The gist of the method:
as §1

Regarding HDHD3 (UniProt Q9BSH5), the log2 fold change in [1] is inactive: 0.008; in experiment [2], inactive: -0.005; in experiment [3] it was inactive: 0.006; in experiment [4], inactive: -0.003; in experiment [5] it was inactive: 0.157; in [6], inactive: 0.011. For the same target, the log2 fold change in [7] was inactive: 0.063; in experiment [8], inactive: -0.005; in [9], inactive: -0.013; in experiment [10], inactive: 0.014.
As for HAUS8 (UniProt Q9BT25), the log2 fold change in experiment [1] is inactive: 0.007; in experiment [2], inactive: -0.007; in experiment [3] it was inactive: 0.007; in [4], inactive: 0.016; in experiment [5], inactive: -0.06; in experiment [6] it was inactive: -0.029. Moreover, the log2 fold change in experiment [7] is inactive: 0.142; in experiment [8] it was inactive: 0.001; in [9], inactive: 0.062; in experiment [10], inactive: 0.015.
For the target HAX1 (UniProt O00165), the log2 fold change in experiment [1] was inactive: 0.003; in [2] it was inactive: 0.024; in experiment [3], inactive: -0.078; in [4], inactive: 0.013; in experiment [5], inactive: -0.01; in experiment [6], inactive: 0.015. In addition, the log2 fold change is inactive: -0.034 in [7], inactive: 0.056 in [8], inactive: -0.029 in experiment [9] and inactive: 0.022 in [10].
For HDAC7 isoform 5 (UniProt Q8WUI4), the log2 fold change in experiment [1] is inactive: -0.002; in experiment [2], inactive: 0.053; in [3], inactive: 0.04; in experiment [4] it was inactive: -0.013; in experiment [5], inactive: -0.021; in experiment [6], inactive: -0.014. For the same target, the log2 fold change in experiment [7] was inactive: -0.044; in [8], inactive: -0.062; in experiment [9], inactive: -0.014; in experiment [10], inactive: -0.018.
Turning to H3-3A (UniProt P84243), the log2 fold change was inactive: 0.038 in experiment [1]; inactive: 0.001 in [2]; inactive: 0.048 in [3]; inactive: -0.033 in experiment [4]; inactive: -0.055 in experiment [5]; inactive: 0.056 in [7]. The results for the log2 fold change in experiment [8] and in experiment [9] were inactive: -0.053 and active: -0.315, respectively.
Consider GRN (UniProt P28799), for which the log2 fold change is inactive: -0.029 in experiment [1]; inactive: -0.003 in [3]; inactive: -0.035 in experiment [6]; inactive: -0.013 in experiment [8]; inactive: -0.023 in experiment [9]; inactive: 0.036 in experiment [10].
